Reference: US20190051326A1, “Ionic Liquid, Lubricant, and Magnetic Recording Medium” (priority 2016, published 2019)

Experiment: Tape durability test (friction coefficient, still durability, shuttle durability)
Conditions: for Still durability after heating/min / Friction coefficient after 100 runs after heating / Shuttle durability after heating/times: after heating test 10 minutes at 100° C.
[1] = −5° C., decay time of output by −3 dB in paused state
[2] = −5° C., shuttles until output reduced by 3 dB

| Compound | Still durability/min (40° C., 30% RH) | Still durability after heating/min (40° C., 30% RH) | Friction coefficient after 100 runs (40° C., 90% RH) | Shuttle durability/times (40° C., 90% RH) | Friction coefficient after 100 runs after heating (40° C., 90% RH) | Shuttle durability after heating/times (40° C., 90% RH) | Friction coefficient after 100 runs (−5° C.) | Friction coefficient after 100 runs after heating (−5° C.) | Shuttle durability after heating/times (−5° C.) | Still durability after heating/min (−5° C.) | Still durability/min [1] | Shuttle durability/times [2] | magnetic tape durability after the heating test (in words) (after heating test) |
| --- | --- | --- | --- | --- | --- | --- | --- | --- | --- | --- | --- | --- | --- |
| nonafluorobutanesulfonic acid-1-octadecyl-2-heptadecylimidazolium [Comparative Example 6A] | >60 min | >60 min | 0.22 | >200 times | 0.23 | >200 times | 0.20 | 0.21 | >200 times | >60 min | >60 min | >200 times |  |
| CCCCCCCCCCCCCC[N+](C)(C)CCCO.O=S(=O)([N-]S(=O)(=O)C(F)(F)C(F)(F)C(F)(F)C(F)(F)F)C(F)(F)C(F)(F)C(F)(F)C(F)(F)F [Example 9A, bis(nonafluorobutanesulfonyl)imide-N-3′hydroxypropyl-N,N-dimethyltetradecylammonium] | >60 min | >60 min | 0.25 | >200 times | 0.26 | >200 times | 0.24 | 0.24 | >200 times | >60 min | >60 min | >200 times |  |
| nonafluorobutanesulfonic acid-N,N,N-trimethyloctadecylammonium [Comparative Example 9A] | >60 min | >60 min | 0.19 | >200 times | 0.19 | >200 times | 0.18 | 0.19 | >200 times | >60 min | >60 min | >200 times |  |
| CCCCCCCCCCCCCCCCCCC1CCCCN2CCCN=C12.O=S1(=O)NS(=O)(=O)C(F)(F)C(F)(F)C1(F)F (stereo not shown) [Comparative Example 4A, hexafluorocyclopropane-1,3-bis(sulfonyl)imide-6-octadecyl-1,8-diazabicyclo[5.4.0]-7-undecenium] | >60 min | >60 min | 0.26 | >200 times | 0.27 | >200 times | 0.23 | 0.24 | >200 times | >60 min | >60 min | >200 times |  |
| CCCCCCCCCCCCCCCCCC[n+]1ccn(CCCC)c1.O=S1(=O)[N-]S(=O)(=O)C(F)(F)C(F)(F)C1(F)F [Comparative Example 2A, hexafluorocyclopropane-1,3-bis(sulfonyl)imide-1-butyl-3-n-octadecylimidazolium] | >60 min | >60 min | 0.25 | >200 times | 0.27 | >200 times | 0.23 | 0.25 | >200 times | >60 min | >60 min | >200 times |  |
| CCCCCCCCCCCCCCCCCC[N+]1(CCCO)CCCC1.O=S(=O)([N-]S(=O)(=O)C(F)(F)C(F)(F)C(F)(F)C(F)(F)F)C(F)(F)C(F)(F)C(F)(F)C(F)(F)F [Example 3A, bis(nonafluorobutanesulfonyl)imide-N-3′hydroxypropyl-N-octadecylpyrrolidinium] | >60 min | >60 min | 0.26 | >200 times | 0.28 | >200 times | 0.22 | 0.25 | >200 times | >60 min | >60 min | >200 times |  |
| CCCCCCCCCCCCCCCCCCC1CCCCN2CCC[N+](CCCO)=C12.O=S(=O)([N-]S(=O)(=O)C(F)(F)C(F)(F)C(F)(F)C(F)(F)F)C(F)(F)C(F)(F)C(F)(F)C(F)(F)F (stereo not shown) [Example 5A, bis(nonafluorobutanesulfonyl)imide-6-octadecyl-8-3′-hydroxypropyl-1,8-diazabicyclo[5.4 0.0]-7-undecenium] | >60 min | >60 min | 0.26 | >200 times | 0.27 | >200 times | 0.24 | 0.25 | >200 times | >60 min | >60 min | >200 times |  |
| CCCCCCCCCCCCCCCCCCN.O=S(=O)(NS(=O)(=O)C(F)(F)C(F)(F)C(F)(F)C(F)(F)F)C(F)(F)C(F)(F)C(F)(F)C(F)(F)F [Comparative Example 8A, bis(nonafluorobutanesulfonyl)imide-octadecylammonium] | >60 min | >60 min | 0.20 | >200 times | 0.20 | >200 times | 0.19 | 0.20 | >200 times | >60 min | >60 min | >200 times |  |
| bis(nonafluorobutanesulfonyl)imide-1-dodecyl-2-undecyl-3-3′hydroxypropyloctadecylimidazolium [Example 7A] | >60 min | >60 min | 0.25 | >200 times | 0.26 | >200 times | 0.24 | 0.24 | >200 times | >60 min | >60 min | >200 times |  |
| nonafluorobutanesulfonic acid-1-octadecylimidazolium [Comparative Example 1A] | >60 min | >60 min | 0.22 | >200 times | 0.23 | >200 times | 0.20 | 0.20 | >200 times | >60 min | >60 min | >200 times |  |
| CCCCCCCCCCCCCCCCCC[N+](C)(C)CCCO.O=S(=O)([N-]S(=O)(=O)C(F)(F)C(F)(F)C(F)(F)C(F)(F)F)C(F)(F)C(F)(F)C(F)(F)C(F)(F)F [Example 10A, bis(nonafluorobutanesulfonyl)imide-N-3′hydroxypropyl-N,N-dimethyloctadecylammonium] | >60 min | >60 min | 0.21 | >200 times | 0.21 | >200 times | 0.19 | 0.20 | >200 times | >60 min | >60 min | >200 times |  |
| CCCCCCCCCCCCCCCCCC[n+]1ccn(CCCO)c1CCCCCCCCCCCCCCCCC.O=S(=O)([N-]S(=O)(=O)C(F)(F)C(F)(F)C(F)(F)C(F)(F)F)C(F)(F)C(F)(F)C(F)(F)C(F)(F)F [Example 8A, bis(nonafluorobutanesulfonyl)imide-1-3′hydroxypropyl-2-heptadecyl-3-octadecylimidazolium] | >60 min | >60 min | 0.22 | >200 times | 0.23 | >200 times | 0.21 | 0.21 | >200 times | >60 min | >60 min | >200 times |  |
| pentadecafluorooctanoic acid octadecylammonium [Comparative Example 5A] | >60 min | 16 min | 0.25 | >200 times | 0.51 | 23 times | 0.21 | 0.45 | 30 times | 12 min | >60 min | >200 times | considerably deteriorated in the magnetic tape durability after the heating test |
